Data published in article PMC8394137.
No constants are given. Whether binding was seen depends on the method and setting. In cells and extracts the contact can be indirect. A yes stands for co-enrichment or nearness to the bait. Other partners may have been found.

Chains of the proteins cited; added tags and fusions are not shown.
UniProt O43736: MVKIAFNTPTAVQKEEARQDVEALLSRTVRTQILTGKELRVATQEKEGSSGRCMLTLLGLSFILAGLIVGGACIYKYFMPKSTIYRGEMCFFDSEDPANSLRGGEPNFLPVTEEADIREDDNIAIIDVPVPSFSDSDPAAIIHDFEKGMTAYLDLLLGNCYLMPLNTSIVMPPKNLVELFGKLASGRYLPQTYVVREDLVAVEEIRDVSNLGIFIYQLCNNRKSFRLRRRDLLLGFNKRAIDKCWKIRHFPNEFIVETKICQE

B1: DARS (protein, UniProt P14868 1-501)
chain: MPSASASRKSQEKPREIMDAAEDYAKERYGISSMIQSQEKPDRVLVRVRDLTIQKADEVVWVRARVHTSRAKGKQCFLVLRQQQFNVQALVAVGDHASKQMVKFAANINKESIVDVEGVVRKVNQKIGSCTQQDVELHVQKIYVISLAEPRLPLQLDDAVRPEAEGEEEGRATVNQDTRLDNRVIDLRTSTSQAVFRLQSGICHLFRETLINKGFVEIQTPKIISAASEGGANVFTVSYFKNNAYLAQSPQLYKQMCICADFEKVFSIGPVFRAEDSNTHRHLTEFVGLDIEMAFNYHYHEVMEEIADTMVQIFKGLQERFQTEIQTVNKQFPCEPFKFLEPTLRLEYCEALAMLREAGVEMGDEDDLSTPNEKLLGHLVKEKYDTDFYILDKYPLAVRPFYTMPDPRNPKQSNSYDMFMRGEEILSGAQRIHDPQLLTERALHHGIDLEKIKAYIDSFRFGAPPHAGGGIGLERVTMLFLGLHNVRQTSMFPRDPKRLTP
B2: ERLIN2 (protein, UniProt O94905 1-339)
chain: MAQLGAVVAVASSFFCASLFSAVHKIEEGHIGVYYRGGALLTSTSGPGFHLMLPFITSYKSVQTTLQTDEVKNVPCGTSGGVMIYFDRIEVVNFLVPNAVYDIVKNYTADYDKALIFNKIHHELNQFCSVHTLQEVYIELFDQIDENLKLALQQDLTSMAPGLVIQAVRVTKPNIPEAIRRNYELMESEKTKLLIAAQKQKVVEKEAETERKKALIEAEKVAQVAEITYGQKVMEKETEKKISEIEDAAFLAREKAKADAECYTAMKIAEANKLKLTPEYLQLMKYKAIASNSKIYFGKDIPNMFMDSAGSVSKQFEGLADKLSFGLEDEPLETATKEN
B3: FAF2 (protein, UniProt Q96CS3 1-445)
chain: MAAPEERDLTQEQTEKLLQFQDLTGIESMDQCRHTLEQHNWNIEAAVQDRLNEQEGVPSVFNPPPSRPLQVNTADHRIYSYVVSRPQPRGLLGWGYYLIMLPFRFTYYTILDIFRFALRFIRPDPRSRVTDPVGDIVSFMHSFEEKYGRAHPVFYQGTYSQALNDAKRELRFLLVYLHGDDHQDSDEFCRNTLCAPEVISLINTRMLFWACSTNKPEGYRVSQALRENTYPFLAMIMLKDRRMTVVGRLEGLIQPDDLINQLTFIMDANQTYLVSERLEREERNQTQVLRQQQDEAYLASLRADQEKERKKREERERKRRKEEEVQQQKLAEERRRQNLQEEKERKLECLPPEPSPDDPESVKIIFKLPNDSRVERRFHFSQSLTVIHDFLFSLKESPEKFQIEANFPRRVLPCIPSEEWPNPPTLQEAGLSHTEVLFVQDLTDE
B4: G3BP2 (protein, UniProt Q9UN86 1-482)
chain: MVMEKPSPLLVGREFVRQYYTLLNKAPEYLHRFYGRNSSYVHGGVDASGKPQEAVYGQNDIHHKVLSLNFSECHTKIRHVDAHATLSDGVVVQVMGLLSNSGQPERKFMQTFVLAPEGSVPNKFYVHNDMFRYEDEVFGDSEPELDEESEDEVEEEQEERQPSPEPVQENANSGYYEAHPVTNGIEEPLEESSHEPEPEPESETKTEELKPQVEEKNLEELEEKSTTPPPAEPVSLPQEPPKAFSWASVTSKNLPPSGTVSSSGIPPHVKAPVSQPRVEAKPEVQSQPPRVREQRPRERPGFPPRGPRPGRGDMEQNDSDNRRIIRYPDSHQLFVGNLPHDIDENELKEFFMSFGNVVELRINTKGVGGKLPNFGFVVFDDSEPVQRILIAKPIMFRGEVRLNVEEKKTRAARERETRGGGDDRRDIRRNDRGPGGPRGIVGGGMMRDRDGRGPPPRGGMAQKLGSGRGTGQMEGRFTGQRR
B5: GANAB (protein, UniProt Q14697 29-944)
chain: ITLAVDRSNFKTCEESSFCKRQRSIRPGLSPYRALLDSLQLGPDSLTVHLIHEVTKVLLVLELQGLQKNMTRFRIDELEPRRPRYRVPDVLVADPPIARLSVSGRDENSVELTMAEGPYKIILTARPFRLDLLEDRSLLLSVNARGLLEFEHQRAPRVSQGSKDPAEGDGAQPEETPRDGDKPEETQGKAEKDEPGAWEETFKTHSDSKPYGPMSVGLDFSLPGMEHVYGIPEHADNLRLKVTEGGEPYRLYNLDVFQYELYNPMALYGSVPVLLAHNPHRDLGIFWLNAAETWVDISSNTAGKTLFGKMMDYLQGSGETPQTDVRWMSETGIIDVFLLLGPSISDVFRQYASLTGTQALPPLFSLGYHQSRWNYRDEADVLEVDQGFDDHNLPCDVIWLDIEHADGKRYFTWDPSRFPQPRTMLERLASKRRKLVAIVDPHIKVDSGYRVHEELRNLGLYVKTRDGSDYEGWCWPGSAGYPDFTNPTMRAWWANMFSYDNYEGSAPNLFVWNDMNEPSVFNGPEVTMLKDAQHYGGWEHRDVHNIYGLYVHMATADGLRQRSGGMERPFVLARAFFAGSQRFGAVWTGDNTAEWDHLKISIPMCLSLGLVGLSFCGADVGGFFKNPEPELLVRWYQMGAYQPFFRAHAHLDTGRREPWLLPSQHNDIIRDALGQRYSLLPFWYTLLYQAHREGIPVMRPLWVQYPQDVTTFNIDDQYLLGDALLVHPVSDSGAHGVQVYLPGQGEVWYDIQSYQKHHGPQTLYLPVTLSSIPVFQRGGTIVPRWMRVRRSSECMKDDPITLFVALSPQGTAQGELFLDDGHTFNYQTRQEFLLRRFSFSGNTLVSSSADPEGHFETPIWIERVVIIGAGKPAAVVLQTKGSPESRLSFQHDPETSVLVLRKPGINVASDWSIHLR
B6: HNRNPR (protein, UniProt O43390 1-633)
chain: MANQVNGNAVQLKEEEEPMDTSSVTHTEHYKTLIEAGLPQKVAERLDEIFQTGLVAYVDLDERAIDALREFNEEGALSVLQQFKESDLSHVQNKSAFLCGVMKTYRQREKQGSKVQESTKGPDEAKIKALLERTGYTLDVTTGQRKYGGPPPDSVYSGVQPGIGTEVFVGKIPRDLYEDELVPLFEKAGPIWDLRLMMDPLSGQNRGYAFITFCGKEAAQEAVKLCDSYEIRPGKHLGVCISVANNRLFVGSIPKNKTKENILEEFSKVTEGLVDVILYHQPDDKKKNRGFCFLEYEDHKSAAQARRRLMSGKVKVWGNVVTVEWADPVEEPDPEVMAKVKVLFVRNLATTVTEEILEKSFSEFGKLERVKKLKDYAFVHFEDRGAAVKAMDEMNGKEIEGEEIEIVLAKPPDKKRKERQAARQASRSTAYEDYYYHPPPRMPPPIRGRGRGGGRGGYGYPPDYYGYEDYYDDYYGYDYHDYRGGYEDPYYGYDDGYAVRGRGGGRGGRGAPPPPRGRGAPPPRGRAGYSQRGAPLGPPRGSRGGRGGPAQQQRGRGSRGSRGNRGGNVGGKRKADGYNQPDSKRRQTNNQQNWGSQPIAQQPLQQGGDYSGNYGYNNDNQEFYQDTYGQQWK
B7: HSD17B12 (protein, UniProt Q53GQ0 1-312)
chain: MESALPAAGFLYWVGAGTVAYLALRISYSLFTALRVWGVGNEAGVGPGLGEWAVVTGSTDGIGKSYAEELAKHGMKVVLISRSKDKLDQVSSEIKEKFKVETRTIAVDFASEDIYDKIKTGLAGLEIGILVNNVGMSYEYPEYFLDVPDLDNVIKKMININILSVCKMTQLVLPGMVERSKGAILNISSGSGMLPVPLLTIYSATKTFVDFFSQCLHEEYRSKGVFVQSVLPYFVATKLAKIRKPTLDKPSPETFVKSAIKTVGLQSRTNGYLIHALMGSIISNLPSWIYLKIVMNMNKSTRAHYLKKTKKN
B8: LMAN1 (protein, UniProt P49257 31-510)
chain: DGVGGDPAVALPHRRFEYKYSFKGPHLVQSDGTVPFWAHAGNAIPSSDQIRVAPSLKSQRGSVWTKTKAAFENWEVEVTFRVTGRGRIGADGLAIWYAENQGLEGPVFGSADLWNGVGIFFDSFDNDGKKNNPAIVIIGNNGQIHYDHQNDGASQALASCQRDFRNKPYPVRAKITYYQNTLTVMINNGFTPDKNDYEFCAKVENMIIPAQGHFGISAATGGLADDHDVLSFLTFQLTEPGKEPPTPDKEISEKEKEKYQEEFEHFQQELDKKKEEFQKGHPDLQGQPAEEIFESVGDRELRQVFEGQNRIHLEIKQLNRQLDMILDEQRRYVSSLTEEISKRGAGMPGQHGQITQQELDTVVKTQHEILRQVNEMKNSMSETVRLVSGMQHPGSAGGVYETTQHFIDIKEHLHIVKRDIDNLVQRNMPSNEKPKCPELPPFPSCLSTVHFIIFVVVQTVLFIGYIMYRSQQEAAAKKFF
B9: MARS (protein, UniProt P56192 1-900)
chain: MRLFVSDGVPGCLPVLAAAGRARGRAEVLISTVGPEDCVVPFLTRPKVPVLQLDSGNYLFSTSAICRYFFLLSGWEQDDLTNQWLEWEATELQPALSAALYYLVVQGKKGEDVLGSVRRALTHIDHSLSRQNCPFLAGETESLADIVLWGALYPLLQDPAYLPEELSALHSWFQTLSTQEPCQRAAETVLKQQGVLALRPYLQKQPQPSPAEGRAVTNEPEEEELATLSEEEIAMAVTAWEKGLESLPPLRPQQNPVLPVAGERNVLITSALPYVNNVPHLGNIIGCVLSADVFARYSRLRQWNTLYLCGTDEYGTATETKALEEGLTPQEICDKYHIIHADIYRWFNISFDIFGRTTTPQQTKITQDIFQQLLKRGFVLQDTVEQLRCEHCARFLADRFVEGVCPFCGYEEARGDQCDKCGKLINAVELKKPQCKVCRSCPVVQSSQHLFLDLPKLEKRLEEWLGRTLPGSDWTPNAQFITRSWLRDGLKPRCITRDLKWGTPVPLEGFEDKVFYVWFDATIGYLSITANYTDQWERWWKNPEQVDLYQFMAKDNVPFHSLVFPCSALGAEDNYTLVSHLIATEYLNYEDGKFSKSRGVGVFGDMAQDTGIPADIWRFYLLYIRPEGQDSAFSWTDLLLKNNSELLNNLGNFINRAGMFVSKFFGGYVPEMVLTPDDQRLLAHVTLELQHYHQLLEKVRIRDALRSILTISRHGNQYIQVNEPWKRIKGSEADRQRAGTVTGLAVNIAALLSVMLQPYMPTVSATIQAQLQLPPPACSILLTNFLCTLPAGHQIGTVSPLFQKLENDQIESLRQRFGGGQAKTSPKPAVVETVTTAKPQQIQALMDEVTKQGNIVRELKAQKADKNEVAAEVAKLLDLKKQLAVAEGKPPEAPKGKKKK
B10: NUFIP2 (protein, UniProt Q7Z417 1-695)
chain: MEEKPGQPQPQHHHSHHHPHHHPQQQQQQPHHHHHYYFYNHSHNHHHHHHHQQPHQYLQHGAEGSPKAQPKPLKHEQKHTLQQHQETPKKKTGYGELNGNAGEREISLKNLSSDEATNPISRVLNGNQQVVDTSLKQTVKANTFGKAGIKTKNFIQKNSMDKKNGKSYENKSGENQSVDKSDTIPIPNGVVTNNSGYITNGYMGKGADNDGSGSESGYTTPKKRKARRNSAKGCENLNIVQDKIMQQETSVPTLKQGLETFKPDYSEQKGNRVDGSKPIWKYETGPGGTSRGKPAVGDMLRKSSDSKPGVSSKKFDDRPKGKHASAVASKEDSWTLFKPPPVFPVDNSSAKIVPKISYASKVKENLNKTIQNSSVSPTSSSSSSSSTGETQTQSSSRLSQVPMSALKSVTSANFSNGPVLAGTDGNVYPPGGQPLLTTAANTLTPISSGTDSVLQDMSLTSAAVEQIKTSLFIYPSNMQTMLLSTAQVDLPSQTDQQNLGDIFQNQWGLSFINEPSAGPETVTGKSSEHKVMEVTFQGEYPATLVSQGAEIIPSGTEHPVFPKAYELEKRTSPQVLGSILKSGTTSESGALSLEPSHIGDLQKADTSSQGALVFLSKDYEIESQNPLASPTNTLLGSAKEQRYQRGLERNDSWGSFDLRAAIVYHTKEMESIWNLQKQDPKRIITYNEAMDSPDQ

Biological target: HA-ITM2A (UniProt O43736)
Assay: affinity purification with mass spectrometry; HEK293 transfected with HA-ITM2A or empty pcDNA3.1, immunoprecipitated as for co-IP, trypsin digestion, mass spectrometry; proteins of the empty-vector control subtracted

binding, binds:
B1
B2
B3
B4
B5
B6
B7
B8
B9
B10
